Results deposited as PubChem BioAssay AID1259425 (University of Nebraska Medical Center, 2018)

Test: 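Compare each knockdown with KSR1 silencing using changes in marker transcripts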 (primary screen)
System: HCT116 human colon cancer cells
Reagent: siRNA pool against human genes, 50 nM siRNA
Measurement: 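After 50 nM siRNA pool, branched-DNA assay measures six marker transcripts per well, minus blank, normalised to the geometric mean of two housekeeping transcripts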
Scale: BNIP3L mRNA: higher = more BNIP3L transcript after knockdown
This is an unselected part of about 14,000 reagents. Further read-outs or replicates are left out here. Reagent sequences are not shown. The record does not give: the time to read-out.

| gene | BNIP3L mRNA, set 1 |
| --- | --- |
| ZBTB6 (zinc finger and BTB domain containing 6) | 0.207 |
| ODR4 (odr-4 GPCR localization factor homolog) | 0.101 |
| RAPGEF1 (Rap guanine nucleotide exchange factor 1) | 0.0923 |
| SECISBP2L (SECIS binding protein 2 like) | 0.0872 |
| AMACR (alpha-methylacyl-CoA racemase) | 0.123 |
| LINC01587 (long independently transcribed non-coding RNA 1587) | 0.0905 |
| UBL5 (ubiquitin like 5) | 0.195 |
| LUC7L2 (LUC7 like 2, pre-mRNA splicing factor) | 0.229 |
| HS3ST1 (heparan sulfate-glucosamine 3-sulfotransferase 1) | 0.131 |
| KCNJ14 (potassium inwardly rectifying channel subfamily J member 14) | 0.103 |
| NAT8 (N-acetyltransferase 8 (putative)) | 0.119 |
| UCK1 (uridine-cytidine kinase 1) | 0.115 |
| NBL1 (NBL1, DAN family BMP antagonist) | 0.0597 |
| CALCA (calcitonin related polypeptide alpha) | 0.072 |
| SLC25A39 | 0.166 |
| ACSS3 (acyl-CoA synthetase short chain family member 3) | 0.2 |
| EBPL (EBP like) | 0.121 |
| LSM10 (LSM10, U7 small nuclear RNA associated) | 0.0737 |
| ADH1B (alcohol dehydrogenase 1B (class I), beta polypeptide) | 0.118 |
| MME (membrane metalloendopeptidase) | 0.147 |
| DACT1 (dishevelled binding antagonist of beta catenin 1) | 0.132 |
| HAPLN2 (hyaluronan and proteoglycan link protein 2) | 0.0395 |
| LZTS1 (leucine zipper tumor suppressor 1) | 0.128 |
| ST3GAL4 (ST3 beta-galactoside alpha-2,3-sialyltransferase 4) | 0.309 |
| STXBP5L (syntaxin binding protein 5L) | 0.163 |
| KLHL8 (kelch like family member 8) | 0.372 |
| MAS1 (MAS1 proto-oncogene, G protein-coupled receptor) | 0.122 |
| RPN2 (ribophorin II) | 0.0639 |
| GPR108 (G protein-coupled receptor 108) | 0.159 |
| PTPA (protein phosphatase 2 phosphatase activator) | 0.112 |

Copied from the list.
Under “BNIP3L mRNA, set 1”, ODR4 (odr-4 GPCR localization factor homolog) is entered as 0.101
Under “BNIP3L mRNA, set 1”, HS3ST1 (heparan sulfate-glucosamine 3-sulfotransferase 1) is entered as 0.131
Under “BNIP3L mRNA, set 1”, KLHL8 (kelch like family member 8) is entered as 0.372
Result for STXBP5L (syntaxin binding protein 5L) under “BNIP3L mRNA, set 1”: 0.163
NBL1 (NBL1, DAN family BMP antagonist), BNIP3L mRNA, set 1: 0.0597
NAT8 (N-acetyltransferase 8 (putative)), BNIP3L mRNA, set 1: 0.119

The listing continues:
| gene | BNIP3L mRNA, set 1 |
| --- | --- |
| NDUFAF3 (NADH:ubiquinone oxidoreductase complex assembly factor 3) | 0.159 |
| ENDOD1 (endonuclease domain containing 1) | 0.0966 |
| FOXH1 (forkhead box H1) | 0.091 |
| DDRGK1 (DDRGK domain containing 1) | 0.114 |
| NOLC1 (nucleolar and coiled-body phosphoprotein 1) | 0.165 |
| TXNDC12 (thioredoxin domain containing 12) | 0.0909 |
| KCNA4 (potassium voltage-gated channel subfamily A member 4) | 0.0835 |
| NUP88 (nucleoporin 88) | 0.121 |
| SORBS2 (sorbin and SH3 domain containing 2) | 0.0623 |
| RDX (radixin) | 0.112 |
| GGNBP2 (gametogenetin binding protein 2) | 0.0869 |
| DNMBP (dynamin binding protein) | 0.0791 |
| DNASE1L3 (deoxyribonuclease 1L3) | 0.0514 |
| AKR1C3 (aldo-keto reductase family 1 member C3) | 0.106 |
| BIN2 (bridging integrator 2) | 0.0579 |
| STOML1 (stomatin like 1) | 0.105 |
| DNPEP (aspartyl aminopeptidase) | 0.107 |
| CHRDL2 (chordin like 2) | 0.143 |
| TAS2R42 (taste 2 receptor member 42) | 0.0992 |
| GAGE1 (G antigen 1) | 0.123 |
